Laboratory results: patent US10968181B2, “NRF2 activator” (BIOGEN MA INC., priority 2016, dated 2021)
Some of these results come from one statement about several compounds together.

Tested on: NRF2
Test: PathHunter Nuclear Translocation assay (DiscoverX), agonist format
Assay type: cell-based
Conditions: 6 hours at room temperature, duplicate, 10 concentrations, 30 μM top concentration, normalized to control ligand CDDO methyl ester and vehicle

`CC(=O)N1CC=C2[C@@](C)(Cc3ccccc3)C(=O)C(C#N)=C[C@@]2(C)C1` (single isomer, unassigned) [Compound 75-Ent1] and `CCN1CC=C2C(C)(C)C(=O)C(C#N)=CC2(c2ccccc2)C1=O` (single isomer, unassigned) [Compound 78-Ent1] cannot be ordered by EC50: less than 1000 nM for the first, less than 1000 nM for the second.

`CC[C@]1(C)C(=O)C(C#N)=C[C@@]2(C)CN(C(C)=O)CC[C@@H]21` (single isomer, unassigned) [Compound 76-Ent1] and `CC(=O)N1CC[C@@H]2C(C)(C)C(=O)C(C#N)=C[C@@]2(C)CC1` (single isomer, unassigned) [Compound 82-Ent1] cannot be ordered by EC50: less than 1000 nM for the first, less than 10000 nM for the second.

`CCN1CCC2C(C)(C)C(=O)C(C#N)=CC2(c2ccccc2)C1=O` (single isomer, unassigned) [Compound 77-Ent1] and `CN1CCC2C(C)(C)C(=O)C(C#N)=CC2(c2ccccc2)C1=O` (single isomer, unassigned) [Compound 84-Ent1] cannot be ordered by EC50: less than 10000 nM for the first, less than 10000 nM for the second.

`CCN1CCC2C(C)(C)C(=O)C(C#N)=CC2(c2ccccc2)C1=O` (single isomer, unassigned) [Compound 77-Ent2] and `CN1CCC2C(C)(C)C(=O)C(C#N)=CC2(c2ccccc2)C1=O` (single isomer, unassigned) [Compound 84-Ent2] cannot be ordered by EC50: less than 100 nM for the first, less than 100 nM for the second.

`CCN1CC=C2C(C)(C)C(=O)C(C#N)=CC2(c2ccccc2)C1=O` (single isomer, unassigned) [Compound 78-Ent2] and `COCCN1CC=C2C(C)(C)C(=O)C(C#N)=CC2(c2ccccc2)C1=O` (single isomer, unassigned) [Compound 106-Ent1] cannot be ordered by EC50: less than 100 nM for the first, less than 10000 nM for the second.

`CC1(C)C(=O)C(C#N)=C[C@@]2(C)CN(CC(F)F)CCC[C@H]12` (single isomer, unassigned) [Compound 81-Ent1] and `Cc1nccc(N2CC[C@@H]3C(C)(C)C(=O)C(C#N)=C[C@@]3(C)C2)n1` (single isomer, unassigned) [Compound 83-Ent1] cannot be ordered by EC50: less than 10000 nM for the first, less than 1000 nM for the second.

Compared with `COCCN1CCC2C(C)C(=O)C(C#N)=CC2(c2ccccc2)C1=O` (single isomer, unassigned) [Compound 85-Ent1], `CC1C(=O)C(C#N)=CC2(c3ccccc3)C(=O)N(CCO)CCC12` (single isomer, unassigned) [Compound 98-Ent1] is lower in EC50: greater than 10000 nM for the first, less than 10000 nM for the second.

`COCCN1CCC2C(C)C(=O)C(C#N)=CC2(c2ccccc2)C1=O` (single isomer, unassigned) [Compound 85-Ent2] and `CC1C(=O)C(C#N)=CC2(c3ccccc3)C(=O)N(CCO)CCC12` (single isomer, unassigned) [Compound 98-Ent2] cannot be ordered by EC50: less than 100 nM for the first, less than 1000 nM for the second.

First: COCCN1CCC2C(C)(C)C(=O)C(C#N)=CC2(c2ccccc2)C1=O (single isomer, unassigned) [Compound 86-Ent1]
Second: COCCN1CC=C2C(C)(C)C(=O)C(C#N)=CC2(c2ccccc2)C1=O (single isomer, unassigned) [Compound 106-Ent2]
The EC50 of the first is higher: greater than 10000 nM for the first, less than 1000 nM for the second.

`COCCN1CCC2C(C)(C)C(=O)C(C#N)=CC2(c2ccccc2)C1=O` (single isomer, unassigned) [Compound 86-Ent2] and `CC1C(=O)C(C#N)=CC2(c3ccccc3)C(=O)N(CC(F)F)CCC12` (single isomer, unassigned) [Compound 88-Ent1] cannot be ordered by EC50: less than 1000 nM for the first, less than 10000 nM for the second.

`CC1C(=O)C(C#N)=CC2(c3ccccc3)C(=O)N(Cc3ccccc3F)CCC12` (single isomer, unassigned) [Compound 87-Ent1] and `CC1C(=O)C(C#N)=CC2(c3ccccc3)C(=O)N(Cc3cccc(F)c3)CCC12` (single isomer, unassigned) [Compound 93-Ent1] cannot be ordered by EC50: less than 10000 nM for the first, less than 1000 nM for the second.

`CC1C(=O)C(C#N)=CC2(c3ccccc3)C(=O)N(Cc3ccccc3F)CCC12` (single isomer, unassigned) [Compound 87-Ent2] and `CC1C(=O)C(C#N)=CC2(c3ccccc3)C(=O)N(Cc3cccc(F)c3)CCC12` (single isomer, unassigned) [Compound 93-Ent2] cannot be ordered by EC50: less than 100 nM for the first, less than 100 nM for the second.

`CC1C(=O)C(C#N)=CC2(c3ccccc3)C(=O)N(CC(F)F)CCC12` (single isomer, unassigned) [Compound 88-Ent2] and `CC1C(=O)C(C#N)=CC2(c3ccccc3)C(=O)N(CC3CC3)CCC12` (single isomer, unassigned) [Compound 90-Ent1] cannot be ordered by EC50: less than 1000 nM for the first, less than 10000 nM for the second.

`CC1C(=O)C(C#N)=CC2(c3ccccc3)C(=O)N(Cc3ccc(F)cc3)CCC12` (single isomer, unassigned) [Compound 89-Ent1] and `COc1ccc(CN2CCC3C(C)C(=O)C(C#N)=CC3(c3ccccc3)C2=O)cc1` (single isomer, unassigned) [Compound 92-Ent1] cannot be ordered by EC50: less than 10000 nM for the first, less than 1000 nM for the second.

`CC1C(=O)C(C#N)=CC2(c3ccccc3)C(=O)N(Cc3ccc(F)cc3)CCC12` (single isomer, unassigned) [Compound 89-Ent2] and `COc1ccc(CN2CCC3C(C)C(=O)C(C#N)=CC3(c3ccccc3)C2=O)cc1` (single isomer, unassigned) [Compound 92-Ent2] cannot be ordered by EC50: less than 100 nM for the first, less than 100 nM for the second.

First: CC1C(=O)C(C#N)=CC2(c3ccccc3)C(=O)N(CC3CC3)CCC12 (single isomer, unassigned) [Compound 90-Ent2]
Second: CC1C(=O)C(C#N)=CC2(c3ccccc3)C(=O)N(C3CCC3)CCC12 (single isomer, unassigned) [Compound 96-Ent1]
The EC50 of the first is lower: less than 100 nM for the first, greater than 10000 nM for the second.

`COc1cccc(CN2CCC3C(C)C(=O)C(C#N)=CC3(c3ccccc3)C2=O)c1` (single isomer, unassigned) [Compound 94-Ent1] and `CC1C(=O)C(C#N)=CC2(c3ccccc3)C(=O)N(Cc3cccnc3)CCC12` (single isomer, unassigned) [Compound 99-Ent2] cannot be ordered by EC50: less than 10000 nM for the first, less than 10000 nM for the second.

`COc1cccc(CN2CCC3C(C)C(=O)C(C#N)=CC3(c3ccccc3)C2=O)c1` (single isomer, unassigned) [Compound 94-Ent2] and `CC1C(=O)C(C#N)=CC2(c3ccccc3)C(=O)N(Cc3ccncc3)CCC12` (single isomer, unassigned) [Compound 100-Ent2] cannot be ordered by EC50: less than 100 nM for the first, less than 100 nM for the second.

`CC1C(=O)C(C#N)=CC2(c3ccccc3)C(=O)N(Cc3cnn(C)c3)CCC12` (single isomer, unassigned) [Compound 95-Ent1] and `Cc1cc(CN2CCC3C(C)C(=O)C(C#N)=CC3(c3ccccc3)C2=O)no1` (single isomer, unassigned) [Compound 101-Ent2] cannot be ordered by EC50: less than 10000 nM for the first, less than 100 nM for the second.

`CC1C(=O)C(C#N)=CC2(c3ccccc3)C(=O)N(Cc3cnn(C)c3)CCC12` (single isomer, unassigned) [Compound 95-Ent2] and `CC1C(=O)C(C#N)=CC2(c3ccccc3)C(=O)N(Cc3ccccn3)CCC12` (single isomer, unassigned) [Compound 97-Ent1] cannot be ordered by EC50: less than 1000 nM for the first, less than 100 nM for the second.

`CC1C(=O)C(C#N)=CC2(c3ccccc3)C(=O)N(C3CCC3)CCC12` (single isomer, unassigned) [Compound 96-Ent2] and `CC1C(=O)C(C#N)=CC2(c3ccccc3)C(=O)N(c3ccc(F)cc3)CCC12` (single isomer, unassigned) [Compound 122-Ent1] cannot be ordered by EC50: less than 1000 nM for the first, less than 1000 nM for the second.

`CC1C(=O)C(C#N)=CC2(c3ccccc3)C(=O)N(Cc3ccccn3)CCC12` (single isomer, unassigned) [Compound 97-Ent2] and `CC1C(=O)C(C#N)=CC2(c3ccccc3)C(=O)N(c3ccncn3)CCC12` (single isomer, unassigned) [Compound 121-Ent1] cannot be ordered by EC50: less than 1000 nM for the first, less than 10000 nM for the second.

`CC1(C)C(=O)C(C#N)=CC2(c3ccccc3)C(=O)N(C3CCCC3)CC=C12` (single isomer, unassigned) [Compound 109-Ent2] and `CC1(C)C(=O)C(C#N)=CC2(c3ccccc3)C(=O)N(C3CCC3)CC=C12` (single isomer, unassigned) [Compound 113-Ent2] cannot be ordered by EC50: less than 100 nM for the first, less than 100 nM for the second.

`CC1(C)C(=O)C(C#N)=CC2(c3ccccc3)C(=O)N(C3CC3)CC=C12` (single isomer, unassigned) [Compound 111-Ent1] and `CC1(C)C(=O)C(C#N)=CC2(c3ccccc3)C(=O)N(c3ncccn3)CC=C12` (single isomer, unassigned) [Compound 124-Ent1] cannot be ordered by EC50: less than 1000 nM for the first, less than 100 nM for the second.

`CC1(C)C(=O)C(C#N)=CC2(c3ccccc3)C(=O)N(C3CC3)CC=C12` (single isomer, unassigned) [Compound 111-Ent2] and `CC1(C)C(=O)C(C#N)=CC2(c3ccccc3)C(=O)N(c3ccncc3)CC=C12` (single isomer, unassigned) [Compound 125-Ent1] cannot be ordered by EC50: less than 100 nM for the first, less than 1000 nM for the second.

`CC1(C)C(=O)C(C#N)=CC2(c3ccccc3)C(=O)N(Cc3cccnc3)CC=C12` (single isomer, unassigned) [Compound 112-Ent1] and `CC1(C)C(=O)C(C#N)=CC2(c3ccccc3)C(=O)N(c3ccncc3)CC=C12` (single isomer, unassigned) [Compound 125-Ent2] cannot be ordered by EC50: less than 10000 nM for the first, less than 100 nM for the second.

`CC1(C)C(=O)C(C#N)=CC2(c3ccccc3)C(=O)N(Cc3cccnc3)CC=C12` (single isomer, unassigned) [Compound 112-Ent2] and `CC1C(=O)C(C#N)=CC2(c3ccccc3)C(=O)N(c3ccncn3)CCC12` (single isomer, unassigned) [Compound 121-Ent2] cannot be ordered by EC50: less than 1000 nM for the first, less than 100 nM for the second.

`CCN1CC=C2C(C)(C)C(=O)C(C#N)=C[C@@]2(C)C1=O` (single isomer, unassigned) [Compound 114-Ent1] and `CC(C)N1CCC2C(C)(C)C(=O)C(C#N)=CC2(C)C1=O` (single isomer, unassigned) [Compound 116-Ent1] cannot be ordered by EC50: less than 1000 nM for the first, less than 1000 nM for the second.

Going from `CC1C(=O)C(C#N)=CC2(C)C(=O)N(C)CCC12` (single isomer, unassigned) [Compound 117-Ent1] to `COc1ccc(N2CCC3C(C)C(=O)C(C#N)=CC3(c3ccccc3)C2=O)cc1` (single isomer, unassigned) [Compound 123-Ent1], the EC50 rises from less than 10000 nM to greater than 10000 nM. The first is the more potent here.

`CC1C(=O)C(C#N)=CC2(c3ccccc3)C(=O)N(c3ccc(F)cc3)CCC12` (single isomer, unassigned) [Compound 122-Ent2] and `COc1ccc(N2CCC3C(C)C(=O)C(C#N)=CC3(c3ccccc3)C2=O)cc1` (single isomer, unassigned) [Compound 123-Ent2] cannot be ordered by EC50: less than 10 nM for the first, less than 100 nM for the second.
